# Reference: PubChem BioAssay AID624297 (National Center for Advancing Translational Sciences (NCATS), 2012)
# Hit rate of the full screen: of about 340,000 compounds, about 6,200 (1.8%) were called active. Inconclusive results, whose numbers are uncertain, are shown with a selection of clear calls. Calls follow the shape of the dose curve; as a rule, active = well fitted activation curve with a large enough effect; inconclusive = small, poorly fitted or top-dose-only effect; inactive = no such curve, though single readings can be large or run the other way. Potencies beside an inconclusive call are fits to weak or partial responses and may not hold up.
# Test: A quantitative high throughput screen for small molecules that induce DNA re-replication in SW480 colon adenocarcinoma cells. Also: nearly all actives have a fitted effect of over 55% in size. As to re-replication activation: % of control where 0% means no effect.
# Settings: Hoechst DNA content imaging, 48 h; re-replication activation: at 46.1 µM (top of the series) unless noted
# In short: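 Compounds, transferred as 23 nL by pin tool, were incubated with cells for 48 hr; DNA content per nucleus was then quantified by Hoechst staining and fluorescence plate imaging.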
# Potency is read from the fitted curve at half-maximal effect.
SMILES,Potency,re-replication activation
O=C(COC(=O)Cc1ccc(Cl)cc1)NCc1cccs1,"inconclusive: 2.91 µM [activator, full curve]",–
O=C(NC(Cc1ccccc1)c1nc2ccccc2[nH]1)c1ccc(Cl)c([N+](=O)[O-])c1 (stereo unspecified),"inconclusive: 29.1 µM [activator, single point]",–
Cc1nnc(-c2cccc(Br)c2)c2cn(-c3ccccc3)nc12,inactive,–
Cc1ccc(S(=O)(=O)N(CC(=O)Nc2cccc([N+](=O)[O-])c2)Cc2ccc(Cl)cc2)cc1,active: 8.2 µM,–
CCc1ccc2[nH]c(=O)c(CN(CCCN3CCOCC3)C(=O)Nc3ccc(Cl)cc3)cc2c1,"inconclusive: 29.1 µM [activator, partial curve, poor fit]",–
OC(CN1CCCCC1)Cn1c2ccc(Cl)cc2c2cc(Cl)ccc21 (stereo unspecified),"inconclusive: 18.4 µM [activator, partial curve, poor fit]",–
CC1NC(C)c2c(ccc3ccccc23)O1 (stereo unspecified),"inconclusive: 0.731 µM [activator, full curve, poor fit]",–
O=C(NCc1cc(C(F)(F)F)ccc1F)C1CCC(=O)N(C2CCCCCC2)C1 (stereo unspecified),"inconclusive: 29.1 µM [activator, single point]",–
CCCCN(C(=O)CSCc1c(C)noc1C)c1c(N)n(CCCC)c(=O)[nH]c1=O,inactive,–
COc1cc(OC)cc(-c2nnc(NC(=O)CCS(=O)(=O)c3ccccc3)o2)c1,"inconclusive: 29.1 µM [activator, partial curve, poor fit]",–
CC1CC(=O)N(c2ccc(NCc3ccccc3Cl)c([N+](=O)[O-])c2)C1=O (stereo unspecified),inactive,–
CCc1ccc(C(=O)NNc2ccc(F)cc2)cc1,"inconclusive: 20.6 µM [activator, partial curve, poor fit]",–
CC(Sc1ccc(Cl)cc1)C(=O)NNC(=O)c1ccccc1O (stereo unspecified),"inconclusive: 9.2 µM [activator, partial curve, poor fit]",–
CCOC(=O)C(C)n1cnc2c1c(=O)[nH]c(=O)n2C (stereo unspecified),"inconclusive: 0.146 µM [activator, full curve, poor fit]",–
COc1ccc(C(=O)Nc2cc(OC)ccc2OC)cc1,–,inactive: 3.69% [at 9.22 µM]
Cc1ccc(OCCCCn2ccnc2C)c(C)c1,inactive,–
C=CCCC(=O)Nc1nc(C)c(-c2csc(Nc3cccc(OC)c3)n2)s1,"inconclusive: 29.1 µM [activator, single point]",–
NNC(=O)c1ccc(-c2cccc([N+](=O)[O-])c2)o1,inactive,–
COc1ccc(NC(=O)CSc2nc3ccccc3c(=O)n2CCCN2CCCCC2)c(OC)c1,"inconclusive: 23.1 µM [activator, partial curve, poor fit]",–
C[C@H]1CCC/C=C/[C@@H]2C[C@H](O)C[C@H]2[C@H](O)[C@H](S(=O)c2ccc(O)cc2)CC(=O)O1 (stereo partly specified),"inconclusive: 0.231 µM [activator, full curve]",–
Cc1ccc(-n2c(=O)[nH]c3c(C(N)=O)nc(-c4ccc(C)o4)nc32)cc1,"inconclusive: 29.1 µM [activator, single point]",–

SMILES,Potency,re-replication activation
COc1ccccc1CC(=O)N(CCC1=CCCCC1)c1c(N)n(Cc2ccccc2)c(=O)[nH]c1=O,inactive,–
CCN(CC)CCN(C(=O)CCS(=O)(=O)c1ccccc1)c1nc2cc3c(cc2s1)OCO3,"inconclusive: 29.1 µM [activator, single point]",–
Cc1cccc(C)c1OCc1cc(C(=O)N2CCC(c3ccncc3)CC2)no1,"inconclusive: 2.59 µM [activator, partial curve, poor fit]",–
COc1ccc(CCNC(=O)COC(=O)c2ccccc2NCCO)cc1OC,"inconclusive: 29.1 µM [activator, single point]",–
c1ccc(C[C@H]2CN=C(Nc3ccccc3)N2CC2CCCCCC2)cc1,"inconclusive: 29.1 µM [activator, single point]",–
CCOC(=O)CNC(=O)N1CCCC(N(C)CCc2ccccc2)C1 (stereo unspecified),"inconclusive: 29.1 µM [activator, single point]",–
O=C(C1=C[C@H](c2ccc(Br)cc2)C[C@H](OCCCCO)O1)N1CCN(Cc2ccccc2)CC1,"inconclusive: 32.6 µM [activator, partial curve, poor fit]",–
COc1cc([C@@H]2CC=C(C(=O)O)[C@H](c3ccc(Cl)cc3)N2S(=O)(=O)c2ccc(C)cc2)cc(OC)c1OC,"inconclusive: 1.64 µM [activator, partial curve, poor fit]",–
O=C(CCS(=O)(=O)c1ccccc1)Nc1nc2ccc(F)cc2s1,"inconclusive: 15.8 µM [activator, single point]",–
C=CCn1c(SCc2csc(C)n2)nc2sc3c(c2c1=O)CCCCC3,inactive,–
Nc1c(C(O)(C(F)(F)F)C(F)(F)F)ccc2ccccc12,"inconclusive: 25.9 µM [activator, single point]",–
O=C(CSc1ncccn1)N/N=C/c1cccs1,"inconclusive: 1.84 µM [activator, partial curve, poor fit]",–
O=C(Cc1ccccc1)Nc1cc2c(cc1Cl)OCCCO2,inactive,–
O=C(NC1CC(=O)N(c2ccc(Cl)cc2)C1)C1CC1 (stereo unspecified),"inconclusive: 29.1 µM [activator, partial curve, poor fit]",–
CCO[C@H]1OC(C(=O)N2CCN(Cc3ccccc3)CC2)=C[C@@H](C2CCCCC2)[C@@H]1CCCO,"inconclusive: 5.17 µM [activator, single point]",–
C=CCn1c(=O)c(C(=O)NCCN(CC)CC)c(O)c2ccccc21,inactive,–
Cc1cc(C(=O)Nc2nnc(C(F)(F)F)s2)cs1,"inconclusive: 16.4 µM [activator, partial curve, poor fit]",–
CCOC(=O)N1CCN(S(=O)(=O)c2ccc(C(=O)Nc3sc4c(c3C(=O)OC)CCN(C)C4)cc2)CC1,"inconclusive: 23.1 µM [activator, single point]",–
Cc1cc(OCCCCNC(C)C)cc(C(C)C)c1,"inconclusive: 29.1 µM [activator, single point]",–
COC(=O)COc1ccc(-c2ccccc2)cc1C=O,inactive,–

# Another view of part of the listing above:
SMILES | Potency | re-replication activation
O=C(NC1CC(=O)N(c2ccc(Cl)cc2)C1)C1CC1 (stereo unspecified) | inconclusive: 29.1 µM [activator, partial curve, poor fit] | –
CCO[C@H]1OC(C(=O)N2CCN(Cc3ccccc3)CC2)=C[C@@H](C2CCCCC2)[C@@H]1CCCO | inconclusive: 5.17 µM [activator, single point] | –
C=CCn1c(=O)c(C(=O)NCCN(CC)CC)c(O)c2ccccc21 | inactive | –
